Test results reported in article PMC7819943, “Rice protein-binding microarrays: a tool to detect cis-acting elements near promoter regions in rice”.
The list shows a part of the results.

Protein sequences, listed by entry. Tags and fused reporters are not part of them.
UniProt Q0JBA9, entry or part of it: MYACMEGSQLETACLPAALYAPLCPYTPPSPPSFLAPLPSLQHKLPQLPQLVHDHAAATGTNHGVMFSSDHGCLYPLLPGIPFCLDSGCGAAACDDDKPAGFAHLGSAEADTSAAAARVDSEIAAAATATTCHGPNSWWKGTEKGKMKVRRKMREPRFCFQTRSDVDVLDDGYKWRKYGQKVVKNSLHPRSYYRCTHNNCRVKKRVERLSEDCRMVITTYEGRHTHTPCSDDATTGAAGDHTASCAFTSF

biological target: OsWRKY34 (Oryza sativa, UniProt Q0JBA9 1-250); test: protein-binding microarray (RPBM); PBS, 2% BSA, 51.3 ng/ul salmon testes DNA, 50 uM zinc acetate, 200 nM TF, 25 C, 1 h; high values mean tight binding; details: protein: recombinant; tags: N-terminal polyhistidine and DsRed monomer fusion (pET32a); label: CyDye5-dUTP incorporated in the synthesized complementary strand; 3' TTTTT single-stranded linker to array surface; dsDNA, one strand shown
In short: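 Transcription factors were each fused at the N-terminus to a polyhistidine tag plus DsRed and expressed in E. coli BL21-CodonPlus before Ni–NTA purification. Binding to a double-stranded custom Agilent array was carried out with 200 nM protein at 25 °C for 1 h in PBS, 2% BSA, salmon testes DNA and 50 µM zinc acetate. The binding signal is per-feature fluorescence intensity, in arbitrary units, on an Axon 4000B scanner.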

Sequence	binding signal
AGATTGTGAACTAACATAAAATTGCTTTTTGGTCAAGCCTCGGAGTCACCTAGTGCAG	8170 fluorescence intensity (a.u.)
TGTGTTTTTCAAATTTCTACTCTTGGGTGGGGAAAAGGAGCGGAGTCACCTAGTGCAG	9200 fluorescence intensity (a.u.)
CAACTCATCCATCCCCACCTTGTCCACGTCGTCGCCTATACGGAGTCACCTAGTGCAG	8400 fluorescence intensity (a.u.)
CTCTCCATCCACTCTGCTGCAGCAGCCAAGAAGAAATTTCCGGAGTCACCTAGTGCAG	8200 fluorescence intensity (a.u.)
CCGCCAATCACCCCAACCATCCATTTATGTCGTCGCGCCCCGGAGTCACCTAGTGCAG	11800 fluorescence intensity (a.u.)
CTCGCTCTCTCTCCCGCAGCGTCAGCCGCTTTGCCGCACTCGGAGTCACCTAGTGCAG	8730 fluorescence intensity (a.u.)
ATACTATCACTTCAACCATTGGTAGTGCAATAATTTCTTTCGGAGTCACCTAGTGCAG	8760 fluorescence intensity (a.u.)
GAGAGAATACATTAAGCTTATACATCCCACTATTTGTCGACGGAGTCACCTAGTGCAG	8170 fluorescence intensity (a.u.)
TCCTGACCACTGCGAACTGGCGCGCTGATTTGACTTCCGGCGGAGTCACCTAGTGCAG	8650 fluorescence intensity (a.u.)
ATTAGGATGATCCTACCTGTCCGTACACCATGTTTTGTCCCGGAGTCACCTAGTGCAG	10500 fluorescence intensity (a.u.)
GGAGGGGTGGTTGGTGCCGAGGGAGGTGTGGTCGGTGCCGCGGAGTCACCTAGTGCAG	9980 fluorescence intensity (a.u.)
CCAACCTCCTCAACACATCCAGGATTCTTACATATCATTCCGGAGTCACCTAGTGCAG	8540 fluorescence intensity (a.u.)
CGCTCTCTCGCCTGCCGCCGCGCGCTCGCCGGCCTACCCGCGGAGTCACCTAGTGCAG	8440 fluorescence intensity (a.u.)
TCCATTTTGTCCATACAATTTTGTTGCTACTACAGCACACCGGAGTCACCTAGTGCAG	8430 fluorescence intensity (a.u.)
CATGAGGTGGGCTTTTGTGATTTTCCAAAGAATTAATCTTCGGAGTCACCTAGTGCAG	8780 fluorescence intensity (a.u.)
CACATCTTCCTTTTTCTCAAGCTACATCTTCCTTTTTGTCCGGAGTCACCTAGTGCAG	9600 fluorescence intensity (a.u.)
GATATGAAGCATTTAATCTTGCCCTTGCATATTTACTAGACGGAGTCACCTAGTGCAG	8120 fluorescence intensity (a.u.)
CCGGGGACACCGCCCTCGTCGTCGTCGCCTCCGGCGTCAGCGGAGTCACCTAGTGCAG	8560 fluorescence intensity (a.u.)
TATTCTTTCTATATGTCTCATCAAAGATGTCCTTTTCCACCGGAGTCACCTAGTGCAG	8880 fluorescence intensity (a.u.)
TTTATCCAAACCCTTGCGGCTGCGTGATCACCTCCTTCATCGGAGTCACCTAGTGCAG	8530 fluorescence intensity (a.u.)
CTCTCAAGCTACATACTCCCAGTACTGCTTCATCTAGCTCCGGAGTCACCTAGTGCAG	9380 fluorescence intensity (a.u.)

Sequence	binding signal
CCCAACTGCAGTCTACTCCTATTCTTTTTCAGTTTGGACTCGGAGTCACCTAGTGCAG	8740 fluorescence intensity (a.u.)
ACACCTATTGTTTTCTAATTGGCTTACTAGCCACTACAAACGGAGTCACCTAGTGCAG	9280 fluorescence intensity (a.u.)
GCCGTGTCCTTTTCGTGTGCCTCACATAATGTGTGTGTAACGGAGTCACCTAGTGCAG	9220 fluorescence intensity (a.u.)
CCGTTTCCCGCCGCTGTCTCCCGCCGGAGCCGCCCCTGCTCGGAGTCACCTAGTGCAG	9030 fluorescence intensity (a.u.)
AGAGGGAAAAGATGGAGGGGTATTTTTCATGCAGATCTTTCGGAGTCACCTAGTGCAG	8210 fluorescence intensity (a.u.)
CGCCGTCGCCCATTTCGGCATGCGTTATCACCGCCGCCACCGGAGTCACCTAGTGCAG	13000 fluorescence intensity (a.u.)
GGTTAAGGATTTTTTTAGTGGGCTGGGCTTTTTGGGCTTTCGGAGTCACCTAGTGCAG	11400 fluorescence intensity (a.u.)
GGTGGAAGTCTTACATTTGCTGAAATTGTCTTGGGGAGAACGGAGTCACCTAGTGCAG	10900 fluorescence intensity (a.u.)
TCTGTTCTTGGCGTTGAGATACATAGAGGCTTGGGGTGGGCGGAGTCACCTAGTGCAG	9350 fluorescence intensity (a.u.)
ACGAATATAGGGAGGGGCATCACAGCTTTATTGCTTTAACCGGAGTCACCTAGTGCAG	12500 fluorescence intensity (a.u.)
GTGGCGGTTTAGGAGCGTTTGTAGGAAGTTTAATTGACTTCGGAGTCACCTAGTGCAG	8100 fluorescence intensity (a.u.)
AACACTGCCCAATTGCCCATGCTCCAGACTTCTTTCTACTCGGAGTCACCTAGTGCAG	11900 fluorescence intensity (a.u.)
GCGCCCACGAACCTTGTCTTCAAGCAATCCCACACTTCCTCGGAGTCACCTAGTGCAG	9490 fluorescence intensity (a.u.)
GTTGAACAGATATGTATAGTATTCCCTAACCGGGCTATTTCGGAGTCACCTAGTGCAG	8460 fluorescence intensity (a.u.)
TGTACTGGCCGTTGATTCTGCAGATTCCGCGAATCGTGCGCGGAGTCACCTAGTGCAG	8720 fluorescence intensity (a.u.)
CCATGCACCTCTCGTCGTCTTCCTGATTTCGCCGCCACTTCGGAGTCACCTAGTGCAG	8450 fluorescence intensity (a.u.)
AACACCACACGCCGAGTCGACAATATATAACCCACGACACCGGAGTCACCTAGTGCAG	8160 fluorescence intensity (a.u.)
CGGCGCCGCCACGTCGGATCCCCAACCGCTGAACCGTCCGCGGAGTCACCTAGTGCAG	8440 fluorescence intensity (a.u.)
ACCACAATACTGGACCGCGTTATCACTCATCGGTGTCAACCGGAGTCACCTAGTGCAG	8580 fluorescence intensity (a.u.)
AAAGTATTTTAAGCACAACTTTTCGTTTTTTATATTTGCACGGAGTCACCTAGTGCAG	8930 fluorescence intensity (a.u.)
AAATAATTATCATGTTTGTGTCCATTCATTAAGTCTATTCCGGAGTCACCTAGTGCAG	8020 fluorescence intensity (a.u.)

Sequence	binding signal
CTCTCTCCTCCTCCTTCCAGGTGTGCGTGTTGTACACGCGCGGAGTCACCTAGTGCAG	8320 fluorescence intensity (a.u.)
TTGTTTATTTTATCAATTGACGTGTTCATGCAATCCACAACGGAGTCACCTAGTGCAG	8570 fluorescence intensity (a.u.)
CTATTCATAGTCAAATTTGTTTATTTTGTTTCTACTTGTACGGAGTCACCTAGTGCAG	8740 fluorescence intensity (a.u.)
TTACTCCACCAGTAGATTGGTTGGGTTGGGGTTGGGTTTGCGGAGTCACCTAGTGCAG	11300 fluorescence intensity (a.u.)
ACACTGCCACTCTCTCCCTAGGCCTATAAATACCACCAGTCGGAGTCACCTAGTGCAG	8340 fluorescence intensity (a.u.)
CCCTATTTCTGTATTCACTCGTTCATTGTACTTAATTTTTCGGAGTCACCTAGTGCAG	13500 fluorescence intensity (a.u.)
ATTTTGGTACGTCATCCATATTTGAATCGGTTTTTAAGTTCGGAGTCACCTAGTGCAG	8510 fluorescence intensity (a.u.)
ATTTTTGCAGTGTATTATGACTCATCTTTTTTTTTCAAATCGGAGTCACCTAGTGCAG	8240 fluorescence intensity (a.u.)
CATACGGTGACACTTGGCATTAATCTAATTTAACTTTTTTCGGAGTCACCTAGTGCAG	8550 fluorescence intensity (a.u.)
GGCGGCGGGCGATGAATCCTCCTCGGGGAGGGCGTGGCAACGGAGTCACCTAGTGCAG	9870 fluorescence intensity (a.u.)
AATTTTTCTATAGGATTGAAATCCTCTTTACTATGTTTTTCGGAGTCACCTAGTGCAG	8420 fluorescence intensity (a.u.)
ATGACATGCACCCGTACTAAGCTTTATGTAGATATCTCTACGGAGTCACCTAGTGCAG	10400 fluorescence intensity (a.u.)
TGGTTCTGTGTCCAAGCTTAATATAAGTTTACAGCCCACTCGGAGTCACCTAGTGCAG	9680 fluorescence intensity (a.u.)
TGGAAACTATGTCTAGTGTTATGGGTTGGGACTGCCCTAACGGAGTCACCTAGTGCAG	8390 fluorescence intensity (a.u.)
ATATGTTATGTTTGAGTATATATGTTGCGTTTTAGTTTTACGGAGTCACCTAGTGCAG	10700 fluorescence intensity (a.u.)
ACCTTTCACCCACCCACCACCACACCACAGCTACTTACCTCGGAGTCACCTAGTGCAG	9430 fluorescence intensity (a.u.)
ACCTACGAACAACTCACCATTCTTGGCCGCATTTGCCTTTCGGAGTCACCTAGTGCAG	8860 fluorescence intensity (a.u.)
TTGTAACGCACGGTTTTTTTTTTTGTCTAGTAAGCTAAAACGGAGTCACCTAGTGCAG	8300 fluorescence intensity (a.u.)
CGAGTTTAATCTGCCAATTTGGGCTCCACATGACACACATCGGAGTCACCTAGTGCAG	8600 fluorescence intensity (a.u.)
CTCCCGTCAGTTGACCGTGTGTTGACCGTTAATTCTCAAGCGGAGTCACCTAGTGCAG	17500 fluorescence intensity (a.u.)
TAAAAAATTATATTGTACTACATTGTTTACATCACTTGTTCGGAGTCACCTAGTGCAG	8240 fluorescence intensity (a.u.)

Retrieved one by one from the entries so far, 5 records:
Sequence	binding signal
TGGAAACTATGTCTAGTGTTATGGGTTGGGACTGCCCTAACGGAGTCACCTAGTGCAG	8390 fluorescence intensity (a.u.)
TTGTAACGCACGGTTTTTTTTTTTGTCTAGTAAGCTAAAACGGAGTCACCTAGTGCAG	8300 fluorescence intensity (a.u.)
ATTTTTGCAGTGTATTATGACTCATCTTTTTTTTTCAAATCGGAGTCACCTAGTGCAG	8240 fluorescence intensity (a.u.)
CTCTCTCCTCCTCCTTCCAGGTGTGCGTGTTGTACACGCGCGGAGTCACCTAGTGCAG	8320 fluorescence intensity (a.u.)
CATACGGTGACACTTGGCATTAATCTAATTTAACTTTTTTCGGAGTCACCTAGTGCAG	8550 fluorescence intensity (a.u.)

The results go on.

Sequence	binding signal
GGCGCCGCCGTCGTCCTGCTGCTTCCGCCGCCGCGTCTTCCGGAGTCACCTAGTGCAG	11000 fluorescence intensity (a.u.)
TGTTGCGCCGTCACTCGTAGACTACTCCATCTCGCTCGCCCGGAGTCACCTAGTGCAG	11200 fluorescence intensity (a.u.)
AGGGAGAGGGAGAGGAAGGGCGGGGACGCGGGAGACGATGCGGAGTCACCTAGTGCAG	8510 fluorescence intensity (a.u.)
GTTGGTGGTGGTGGTGGAGGAGGCGGTGGTGGGATCGATGCGGAGTCACCTAGTGCAG	23900 fluorescence intensity (a.u.)
TATTTGGCCTGGTTTAGTTCCCAATTTTTTTCCCAAAACACGGAGTCACCTAGTGCAG	9390 fluorescence intensity (a.u.)
ACGTCTCGTATGGTTGTAGTCGGATCGTCAACGTTTCTCCCGGAGTCACCTAGTGCAG	9290 fluorescence intensity (a.u.)
CCGCGCCCAACGCATCCGTCCCGTCGGTTCCGAACCCAACCGGAGTCACCTAGTGCAG	9890 fluorescence intensity (a.u.)
GTACGTCATCAGTATTTAAGTCGGTTTTTAAGCTCGTTCGCGGAGTCACCTAGTGCAG	9540 fluorescence intensity (a.u.)
GTTTTGCACATCCGGTTTTCTCTCTCTCTCTCTCTCCTTTCGGAGTCACCTAGTGCAG	16700 fluorescence intensity (a.u.)
GAGTATATAGTTTTAGACTTTTAGTGTGTTCCTTCCAATACGGAGTCACCTAGTGCAG	8540 fluorescence intensity (a.u.)
AGGTTGAGTTCTTCCCCGAGTGCACCTGTTATTTTCCCGTCGGAGTCACCTAGTGCAG	8540 fluorescence intensity (a.u.)
ATGCAAACAAAAACCAGACGAAATATAAACTCAAACCATACGGAGTCACCTAGTGCAG	10400 fluorescence intensity (a.u.)
GTCTCGTCTTGCTGTTCTAGAAGATTTCTCTTCGCGTCGCCGGAGTCACCTAGTGCAG	10500 fluorescence intensity (a.u.)
TATTCGAATCACCCATTCTTTTTTCTTTATTCAATCTGTCCGGAGTCACCTAGTGCAG	8550 fluorescence intensity (a.u.)
TCTTGGTTTTTTGCATTGTTTCCTCCCGATTTGTCTTCCTCGGAGTCACCTAGTGCAG	13100 fluorescence intensity (a.u.)
ATTGTGTGCAACTTTTGTTATGTGTCTGTCCTCCATCTTCCGGAGTCACCTAGTGCAG	10800 fluorescence intensity (a.u.)
AGAGTGTTTTGTGTTTTTTAGTGTTATTAAAGAAGTTGTTCGGAGTCACCTAGTGCAG	8500 fluorescence intensity (a.u.)
CTTGCCACATCATTTTTCATTCTAGGTGACAGCTTATTTACGGAGTCACCTAGTGCAG	9390 fluorescence intensity (a.u.)
TCACACCTCCTCCTTTCTCTAGCACTCTTTCGTTCGTGTCCGGAGTCACCTAGTGCAG	8600 fluorescence intensity (a.u.)
GGTTTCCTTTTGTCCTTTCAGATCTCTCTCTCTCTCTCTCCGGAGTCACCTAGTGCAG	11400 fluorescence intensity (a.u.)
GTTATTTATAAATTTGATAGTATCCTGATTTTATGATTGTCGGAGTCACCTAGTGCAG	10300 fluorescence intensity (a.u.)
